PubChem BioAssay AID743266 (National Center for Advancing Translational Sciences (NCATS), 2014)
About 310 (0.076%) of roughly 410,000 compounds were called active. A call without a number means that no potency is given here. The source calls these results inconclusive, neither active nor inactive. The call rests on the fitted dose curve; in most records, active means well fitted activation curve with a large enough effect; inconclusive means small, poorly fitted or top-dose-only effect, or another doubt; inactive means no such curve, though single readings can be large or run the other way.

Chains of the proteins cited; added tags and fusions are not shown.
UniProt Q03431, whole entry: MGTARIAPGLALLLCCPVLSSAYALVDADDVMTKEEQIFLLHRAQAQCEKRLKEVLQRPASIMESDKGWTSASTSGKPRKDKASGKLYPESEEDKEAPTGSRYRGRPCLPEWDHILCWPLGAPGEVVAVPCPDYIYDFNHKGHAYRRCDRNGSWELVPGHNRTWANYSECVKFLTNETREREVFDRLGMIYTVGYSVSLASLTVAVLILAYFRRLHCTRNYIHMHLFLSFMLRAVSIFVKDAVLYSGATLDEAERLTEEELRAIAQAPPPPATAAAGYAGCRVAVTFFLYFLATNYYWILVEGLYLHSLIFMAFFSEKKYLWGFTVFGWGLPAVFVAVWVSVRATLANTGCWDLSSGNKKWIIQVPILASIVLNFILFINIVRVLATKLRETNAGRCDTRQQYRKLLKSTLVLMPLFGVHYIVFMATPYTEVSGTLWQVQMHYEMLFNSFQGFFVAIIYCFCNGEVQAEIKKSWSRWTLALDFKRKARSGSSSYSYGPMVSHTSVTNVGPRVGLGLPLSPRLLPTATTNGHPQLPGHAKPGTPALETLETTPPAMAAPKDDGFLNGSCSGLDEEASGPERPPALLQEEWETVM

Each molecule was assayed against Parathyroid hormone/parathyroid hormone-related peptide receptor (Homo sapiens) (UniProt Q03431) (assay: qHTS for PTHR1 Agonists: Primary Screen). Settings: HEK293 GP2 PTHR1 cells, GloSensor cAMP luminescence, 1 h.
Further: nearly all actives have a fitted effect of over 55% in size.
Potency means the concentration at half of the fitted maximal effect.

| Compound | Potency |
| --- | --- |
| O=C(NCC1(N2CCCCC2)CCCCC1)c1cccc([N+](=O)[O-])c1 | inconclusive: 141 µM |
| COc1ccc(C(=O)NCC2(N3CCCCC3)CCCCC2)c(OC)c1OC | inconclusive |
